In article PMC12040169 (PLOS Biology, 2025):
Some of the results follow.

System: T1, CTL2-GFP (C. trachomatis L2/434/Bu, GFP-expressing)
T1 construct: L2/434/Bu, GFP-expressing
Set-up: species or system HeLa; Intracellular C. trachomatis growth in HeLa cells, bulk GFP fluorescence relative to DMSO
Settings: bulk GFP, single well; 28.5 h, 10 µM; inhibitor

Row | SMILES | % of control remaining [%]
1 | O=C(CSc1nc2ccccc2s1)OCC(=O)c1cccc([N+](=O)[O-])c1 [CBK262361] | 105.307
2 | O=C(Nc1ccccc1O)c1ccc2c(c1)C(=O)N(c1ccc(Sc3ccc([N+](=O)[O-])cc3)cc1)C2=O [CBK262092] | 110.505
3 | O=C(c1nccs1)C1CCN(C(=O)Cc2cccc(F)c2)CC1 [CBK284208] | 136.922
4 | COc1cccc(CN2CCC3(C2)c2[nH]c4ccccc4c2CCN3Cc2cccc(OC)c2)c1 (stereo not drawn) [CBK059468] | 89.962
5 | Cc1cc(C)n2nc(NC(=O)C(C)Oc3ccccc3)nc2n1 (stereo not drawn) [CBK270039] | 123.199
6 | CC1(C)CN(Cc2cccc(-c3ccccn3)c2)CCS1(=O)=O [CBK304284] | 75.0849
7 | Clc1ccc(COc2nccnc2OCc2cccnc2N2CCOCC2)cc1Cl [CBK161610] | 100.84
8 | Cc1cc(NS(=O)(=O)c2cccc([N+](=O)[O-])c2)n(C)n1 [CBK067243] | 122.271
9 | COc1ccc(C)cc1-n1ccc(C(=O)NC2(C#N)CCSC2)n1 (stereo not drawn) [CBK304943] | 101.182
10 | COc1cccc(C2CC(=O)Nc3c2c(=O)nc(SC)n3C)c1 (stereo not drawn) [CBK307546] | 123.314
11 | Cn1nc(-c2ccccc2)cc1[C@H]1CN2CC[C@H]1C[C@@H]2CNS(C)(=O)=O [CBK289096] | 124.125
12 | CC(C)Nc1cc(Sc2cccc(C(=O)O)c2)ncn1 [CBK093583] | 97.8966
13 | CN1CCN(c2ccc(-c3cnc4[nH]c(=O)n(C5CC5)c4n3)cc2)CC1 [CBK064899] | 148.183
14 | Cc1nn(CC(=O)OC(C)C)c(=O)c2cc3sccc3n12 [CBK284022] | 143.715
15 | Cc1ccc(-n2ncc3c(=O)n(CC(=O)Nc4cccc(C)c4)cnc32)cc1 [CBK287533] | 122.705
16 | Cn1ccnc1CCC1CCCCN1C(=O)NCc1cccc(F)c1 (stereo not drawn) [CBK307124] | 95.1296
17 | Cn1c2ccc(Br)cc2c2nnc(SCC(=O)N3c4ccccc4Sc4ccccc43)nc21 [CBK263900] | 117.218
18 | COc1ccc(-c2cnc(N)c(-c3ccc(C(=O)NCCO)cc3)n2)cn1 [CBK064147] | 186.419
19 | CC(C)[C@@H]1C[C@H](C(F)(F)F)n2nc(C3CCCNC3)cc2N1 (stereo partly drawn) [CBK283056] | 132.355
20 | Cc1nc2ccccn2c1CC(=O)N1CCCC(c2ccc(Cc3cccc(F)c3)cn2)C1 (stereo not drawn) [CBK286002] | 66.7897
21 | COc1cc(OC)c(OC)cc1CN1CCN(S(=O)(=O)c2ccc(C)cc2)CC1 [CBK263323] | 102.062
22 | O=CN1CCN(S(=O)(=O)c2ccc3c(c2)Cc2cc(S(=O)(=O)N4CCN(C=O)CC4)ccc2-3)CC1 [CBK264351] | 132.082
23 | OC1(Cn2ccc3ncccc32)CCN(CC2CC=CCC2)CC1 (stereo not drawn) [CBK284782] | 150.883
24 | CC(C)(C)OC(=O)N1CCN(c2cncc(NCc3ccccc3)n2)CC1 [CBK000154] | 120.895
25 | CCCC/C=C/c1nccnc1NCc1ccc(C(F)(F)F)cc1 [CBK038077] | 131.507
26 | COc1ccccc1/C=C1/S/C(=N/Cc2ccccc2)N(Cc2ccccc2)C1=O [CBK262234] | 108.205

Quoted from above, entries 1 to 7
Row | SMILES | % of control remaining [%]
1 | O=C(CSc1nc2ccccc2s1)OCC(=O)c1cccc([N+](=O)[O-])c1 [CBK262361] | 105.307
2 | O=C(Nc1ccccc1O)c1ccc2c(c1)C(=O)N(c1ccc(Sc3ccc([N+](=O)[O-])cc3)cc1)C2=O [CBK262092] | 110.505
3 | O=C(c1nccs1)C1CCN(C(=O)Cc2cccc(F)c2)CC1 [CBK284208] | 136.922
4 | COc1cccc(CN2CCC3(C2)c2[nH]c4ccccc4c2CCN3Cc2cccc(OC)c2)c1 (stereo not drawn) [CBK059468] | 89.962
5 | Cc1cc(C)n2nc(NC(=O)C(C)Oc3ccccc3)nc2n1 (stereo not drawn) [CBK270039] | 123.199
6 | CC1(C)CN(Cc2cccc(-c3ccccn3)c2)CCS1(=O)=O [CBK304284] | 75.0849
7 | Clc1ccc(COc2nccnc2OCc2cccnc2N2CCOCC2)cc1Cl [CBK161610] | 100.84

Continued:

Row | SMILES | % of control remaining [%]
27 | O=C(O)C1CCCCC1C(=O)NCCCCc1ccccc1 (stereo not drawn) [CBK287205] | 143.124
28 | Cc1ccc(N(C(C)C(=O)Nc2ccccc2-c2ccccc2)S(C)(=O)=O)cc1 (stereo not drawn) [CBK267889] | 90.9115
29 | CC(=O)C1=C(O)C(=O)N(CCN2CCNCC2)C1c1cccc([N+](=O)[O-])c1 (stereo not drawn) [CBK263320] | 83.9673
30 | CC1(C)Cc2ccccc2C(NC(Cc2ccccc2)C(=O)O)=N1 (stereo not drawn) [CBK262533] | 100.28
31 | O=c1c(N2CCCNCC2)nccn1CCOc1ccc(Oc2ccccc2)cc1 [CBK028615T] | 131.933
32 | O=C(Nc1cccc(C(=O)O)c1)/C(=C\c1ccco1)NC(=O)c1ccc(Br)cc1 [CBK263707] | 105.146
33 | CC(C)Oc1ncccc1OCc1ccccc1 [CBK001457] | 122.415
34 | CCOC(=O)NC(Nn1cnnc1)(C(F)(F)F)C(F)(F)F [CBK261344] | 78.9237
35 | CCc1[nH]c(=O)c(C(=O)N2CCc3[nH]c4c(C)cccc4c3C2)cc1C [CBK281586] | 131.857
36 | CN(Cc1ccc(-c2ccc(S(C)(=O)=O)cc2)cn1)C1CCN(C(=O)CC(C)(C)O)CC1 [CBK165684T] | 101.514
37 | CCCCSc1nnc2nc(C)cc(C)n12 [CBK027588] | 110.319
38 | Nc1ccccc1Sc1ccccn1 [CBK085854] | 91.7178
39 | CS(=O)(=O)N(CC(=O)NC1CCCCCCC1)c1ccccc1 [CBK270112] | 120.609
40 | CN(C)CCNc1nc(-c2ccc(Cl)cc2)nc2ccccc12 [CBK263942] | 14.5377
41 | Cc1ccccc1C(=O)Nc1ccc(S(=O)(=O)Nc2nccs2)cc1 [CBK086797] | 117.143
42 | COc1ccccc1NC(=O)CCCC(=O)O [CBK261323] | 100.647
43 | CCCCC1C(=O)N(C)CCN1C(=O)NCc1cn2ccc(C)cc2n1 (stereo not drawn) [CBK306648] | 119.429
44 | COc1ccccc1-c1nccnc1N[C@@H](CO)C(C)C [CBK089034] | 200.755
45 | COc1cccc(C(=O)NCCC(=O)N2CCOCC2)c1 [CBK304639] | 107.183
46 | CC1CN(C(C)N2CC(C)OC2=O)C(=O)O1 (stereo not drawn) [CBK022981] | 151.951
47 | O=C(Cc1ccc(F)cc1)N1CCCC(c2cc3ncccc3[nH]2)C1 (stereo not drawn) [CBK283414] | 88.1752
48 | CS(=O)(=O)N(CC(=O)Nc1ccc(C(F)(F)F)cc1)Cc1ccc(Cl)cc1 [CBK268915] | 86.6181
49 | COc1cc(-c2cn3ccnc3c(NCC3CCOCC3)n2)cc(OC)c1OC [CBK037284] | 154.593
50 | O=[N+]([O-])c1ccc(O)c(/C=N/c2ccc(Oc3ccc(/N=C/c4cc([N+](=O)[O-])ccc4O)cc3)cc2)c1 [CBK261093] | 100
51 | CC(C)c1ccc(COc2nccnc2OC2CCN(CCCC#N)CC2)cc1 [CBK161576] | 137.862
52 | COc1ccc(C(=O)N[C@@H]2CN(Cc3ccc(CO)o3)CCC[C@H]2O)cc1 [CBK289067] | 131.976

Row | SMILES | % of control remaining [%]
53 | COc1nccnc1N1CCN(Cc2cccnc2)CC1 [CBK084213] | 110.298
54 | CNS(=O)(=O)c1cccc(C(C)NC(=O)N2CCSCC2)c1 (stereo not drawn) [CBK305825] | 118.247
55 | N#Cc1ccc(N2C(=O)c3ccccc3S2(=O)=O)cc1 [CBK113195] | 112.374
56 | CCN(CC)Cc1ccc2[nH]c(=O)c(CNCc3ccc(OC)cc3)cc2c1 [CBK132113] | 135.848
57 | O=C(Cc1cccc2ccccc12)Nc1ccc(Br)cc1C(=O)O [CBK268286] | 120.69
58 | CC1CCN(S(=O)(=O)N2CCCC2c2cccc(F)c2)CC1 (stereo not drawn) [CBK281957] | 111.73
59 | Cn1cc(CC(=O)N2CCN(c3ccccc3)CC2)c2ccccc21 [CBK200168] | 108.947
60 | C1CN=C(SCCCSC2=NCCCN2)NC1 [CBK278210B] | 122.699
61 | Cc1ccc(NC(=O)Cn2cnc3c2c(=O)n(C)c(=O)n3C)nc1 [CBK133463] | 128.58
62 | COC(=O)C1CCN(S(=O)(=O)c2ccccc2[N+](=O)[O-])CC1 [CBK264393] | 85.783
63 | Cc1nc2ccccc2c2c1C(=O)N(c1cccc(C(=O)OCC(=O)c3ccccc3Cl)c1)C2=O [CBK265505] | 100
64 | COc1ccc(NC(=O)CSc2nsc(SCC(=O)Nc3ccc(OC)cc3)n2)cc1 [CBK008918] | 116.239
65 | Cc1ccc(OCc2occc2C(=O)N2CCCCC(N)C2)cc1 (stereo not drawn) [CBK306840] | 141.869
66 | COc1cccc(CCN2CCC(C(=O)NC(c3ccc(F)cc3)c3nc(OC)cc(OC)n3)CC2)c1 (stereo not drawn) [CBK148089] | 132.417
67 | N#CCCN(CC1CCCO1)S(=O)(=O)c1ccc(OC(F)(F)F)cc1 (stereo not drawn) [CBK044405] | 124.897
68 | Cn1c(NC(=O)COc2ccccc2)nc2ccccc21 [CBK269783] | 90.8526
69 | Cc1c(C(=O)N(C)Cc2nc3ccccc3s2)nnn1C1CCNCC1 [CBK306501C] | 117.977
70 | O=C(O)c1cccc(/N=C/c2ccc(/C=N/c3cccc(C(=O)O)c3)cc2)c1 [CBK261088] | 114.212
71 | O=C(O)CSc1ccccc1[N+](=O)[O-] [CBK111324] | 108.41
72 | COc1ccc(-c2nc(NC(=O)Cc3ccc(N(C)C)cc3)cnc2-c2ccc(F)cc2)cn1 [CBK037582] | 117.227
73 | CCOC(=O)c1[nH]c2ccccc2c1NC(=O)CN1C(=O)CSC1=O [CBK160163] | 85.2275
74 | CCOC(=O)c1c(NC(=S)NCc2ccccn2)sc2c1CCCCC2 [CBK266954] | 138.52
75 | O=C(Nc1cccc(Cl)c1Cl)c1cnc2n(c1=O)CCS2 [CBK287380] | 112.231
76 | CC(=O)c1ccc(-c2nccnc2N(C)Cc2ccccc2)s1 [CBK037504] | 165.261
77 | O=C1NCCNC(=O)C2(C/C=C/COc3ccccc31)CCCNC2 (stereo not drawn) [CBK292171] | 111.179
78 | O=C1COc2ccccc2C/C=C/CC2(CCN(CC3CCOCC3)CC2)CN1 [CBK292128] | 128.213
